{
  "sequences": {"note": "Sequences of proteins named here, by UniProt entry; tags and fusion partners are left off. Residues count along the entry.", "UniProt Q96T88, 414-616": "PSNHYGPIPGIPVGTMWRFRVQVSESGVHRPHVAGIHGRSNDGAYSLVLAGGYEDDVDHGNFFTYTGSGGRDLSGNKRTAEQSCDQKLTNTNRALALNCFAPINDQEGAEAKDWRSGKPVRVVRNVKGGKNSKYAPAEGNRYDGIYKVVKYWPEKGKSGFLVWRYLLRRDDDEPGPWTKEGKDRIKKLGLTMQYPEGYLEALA"},
  "source": "paper PMC6816099",
  "molecular_target": "UHRF1 SRA (WT) (UniProt Q96T88)",
  "assay": "fluorescence polarization",
  "conditions": "weaker than finger swap (~200 nM), Kd printed only in figure; FP: 25 mM HEPES pH 7.5, 100 mM NaCl, 0.05% NP-40, 10 nM FAM-DNA (temperature not stated); recombinant protein; residues 414-616; protein details: N-terminal His6-MBP (retained); label: 5' FAM on antisense strand (strand 2)",
  "note": "Construct, isoform or probe ends are uncertain for at least one entry. Weaker means in comparison with the reference protein, sequence or condition of that experiment. At least one verdict rests on a figure or table, not on a statement of the authors.",
  "data": [
    {"sequence": "CCATGCGCTGAC (double strand) [UnDNA]", "values": [
      {"measurement": "binding result", "result": "binds more weakly"}
    ]}
  ]
}
